Source: the supplement of paper PMC11732987, “Enantioselective OTUD7B fragment discovery through chemoproteomics screening and high-throughput optimisation” (Communications Chemistry, 2025)
Some of the results follow. The data scatter; read single values as rough.

Protein sequences, listed by entry. Tags and fused reporters are not part of them. Lines headed by an entry give the natural chain unless they say otherwise; changes in a name come on top.
UniProt Q9C0I1: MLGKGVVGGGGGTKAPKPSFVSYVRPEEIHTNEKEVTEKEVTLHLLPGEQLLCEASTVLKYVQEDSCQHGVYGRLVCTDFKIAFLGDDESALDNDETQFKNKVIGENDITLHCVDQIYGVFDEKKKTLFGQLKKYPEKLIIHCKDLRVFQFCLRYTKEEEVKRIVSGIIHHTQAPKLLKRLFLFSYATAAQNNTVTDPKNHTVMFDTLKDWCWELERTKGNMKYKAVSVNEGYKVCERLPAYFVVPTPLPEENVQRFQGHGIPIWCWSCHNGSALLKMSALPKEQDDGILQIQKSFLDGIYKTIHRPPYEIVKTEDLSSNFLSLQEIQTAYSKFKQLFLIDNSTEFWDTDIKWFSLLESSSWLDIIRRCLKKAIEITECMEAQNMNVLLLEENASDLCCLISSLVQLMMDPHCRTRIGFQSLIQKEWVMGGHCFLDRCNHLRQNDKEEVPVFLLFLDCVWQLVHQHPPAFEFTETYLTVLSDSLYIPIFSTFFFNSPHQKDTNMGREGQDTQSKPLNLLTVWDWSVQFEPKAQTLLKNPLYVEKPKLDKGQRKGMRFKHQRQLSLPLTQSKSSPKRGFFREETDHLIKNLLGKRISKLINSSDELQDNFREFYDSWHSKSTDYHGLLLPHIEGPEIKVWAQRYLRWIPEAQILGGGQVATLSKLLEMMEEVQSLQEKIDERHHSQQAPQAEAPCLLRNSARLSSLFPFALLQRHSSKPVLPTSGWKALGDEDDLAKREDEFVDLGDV
UniProt P46199: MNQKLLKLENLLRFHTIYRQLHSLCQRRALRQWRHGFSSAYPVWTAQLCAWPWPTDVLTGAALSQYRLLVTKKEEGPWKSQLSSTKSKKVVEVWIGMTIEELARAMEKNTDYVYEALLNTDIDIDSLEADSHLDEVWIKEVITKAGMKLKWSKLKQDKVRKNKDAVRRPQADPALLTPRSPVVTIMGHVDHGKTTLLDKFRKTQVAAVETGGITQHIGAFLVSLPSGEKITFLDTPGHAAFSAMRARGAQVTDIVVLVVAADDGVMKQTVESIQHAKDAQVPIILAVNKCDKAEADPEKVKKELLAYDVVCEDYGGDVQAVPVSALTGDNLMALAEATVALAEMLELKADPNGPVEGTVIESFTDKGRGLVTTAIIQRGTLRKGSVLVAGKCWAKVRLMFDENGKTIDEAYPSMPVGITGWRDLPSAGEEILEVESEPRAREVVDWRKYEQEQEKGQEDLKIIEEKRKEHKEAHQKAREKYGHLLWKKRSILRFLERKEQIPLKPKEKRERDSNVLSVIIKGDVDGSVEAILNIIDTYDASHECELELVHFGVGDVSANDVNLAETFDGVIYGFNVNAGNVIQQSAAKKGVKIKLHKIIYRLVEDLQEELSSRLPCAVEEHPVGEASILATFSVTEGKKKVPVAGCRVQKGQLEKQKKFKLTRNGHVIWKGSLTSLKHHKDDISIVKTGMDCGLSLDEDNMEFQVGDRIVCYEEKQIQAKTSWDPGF
UniProt Q9Y4I1, whole entry, looked up: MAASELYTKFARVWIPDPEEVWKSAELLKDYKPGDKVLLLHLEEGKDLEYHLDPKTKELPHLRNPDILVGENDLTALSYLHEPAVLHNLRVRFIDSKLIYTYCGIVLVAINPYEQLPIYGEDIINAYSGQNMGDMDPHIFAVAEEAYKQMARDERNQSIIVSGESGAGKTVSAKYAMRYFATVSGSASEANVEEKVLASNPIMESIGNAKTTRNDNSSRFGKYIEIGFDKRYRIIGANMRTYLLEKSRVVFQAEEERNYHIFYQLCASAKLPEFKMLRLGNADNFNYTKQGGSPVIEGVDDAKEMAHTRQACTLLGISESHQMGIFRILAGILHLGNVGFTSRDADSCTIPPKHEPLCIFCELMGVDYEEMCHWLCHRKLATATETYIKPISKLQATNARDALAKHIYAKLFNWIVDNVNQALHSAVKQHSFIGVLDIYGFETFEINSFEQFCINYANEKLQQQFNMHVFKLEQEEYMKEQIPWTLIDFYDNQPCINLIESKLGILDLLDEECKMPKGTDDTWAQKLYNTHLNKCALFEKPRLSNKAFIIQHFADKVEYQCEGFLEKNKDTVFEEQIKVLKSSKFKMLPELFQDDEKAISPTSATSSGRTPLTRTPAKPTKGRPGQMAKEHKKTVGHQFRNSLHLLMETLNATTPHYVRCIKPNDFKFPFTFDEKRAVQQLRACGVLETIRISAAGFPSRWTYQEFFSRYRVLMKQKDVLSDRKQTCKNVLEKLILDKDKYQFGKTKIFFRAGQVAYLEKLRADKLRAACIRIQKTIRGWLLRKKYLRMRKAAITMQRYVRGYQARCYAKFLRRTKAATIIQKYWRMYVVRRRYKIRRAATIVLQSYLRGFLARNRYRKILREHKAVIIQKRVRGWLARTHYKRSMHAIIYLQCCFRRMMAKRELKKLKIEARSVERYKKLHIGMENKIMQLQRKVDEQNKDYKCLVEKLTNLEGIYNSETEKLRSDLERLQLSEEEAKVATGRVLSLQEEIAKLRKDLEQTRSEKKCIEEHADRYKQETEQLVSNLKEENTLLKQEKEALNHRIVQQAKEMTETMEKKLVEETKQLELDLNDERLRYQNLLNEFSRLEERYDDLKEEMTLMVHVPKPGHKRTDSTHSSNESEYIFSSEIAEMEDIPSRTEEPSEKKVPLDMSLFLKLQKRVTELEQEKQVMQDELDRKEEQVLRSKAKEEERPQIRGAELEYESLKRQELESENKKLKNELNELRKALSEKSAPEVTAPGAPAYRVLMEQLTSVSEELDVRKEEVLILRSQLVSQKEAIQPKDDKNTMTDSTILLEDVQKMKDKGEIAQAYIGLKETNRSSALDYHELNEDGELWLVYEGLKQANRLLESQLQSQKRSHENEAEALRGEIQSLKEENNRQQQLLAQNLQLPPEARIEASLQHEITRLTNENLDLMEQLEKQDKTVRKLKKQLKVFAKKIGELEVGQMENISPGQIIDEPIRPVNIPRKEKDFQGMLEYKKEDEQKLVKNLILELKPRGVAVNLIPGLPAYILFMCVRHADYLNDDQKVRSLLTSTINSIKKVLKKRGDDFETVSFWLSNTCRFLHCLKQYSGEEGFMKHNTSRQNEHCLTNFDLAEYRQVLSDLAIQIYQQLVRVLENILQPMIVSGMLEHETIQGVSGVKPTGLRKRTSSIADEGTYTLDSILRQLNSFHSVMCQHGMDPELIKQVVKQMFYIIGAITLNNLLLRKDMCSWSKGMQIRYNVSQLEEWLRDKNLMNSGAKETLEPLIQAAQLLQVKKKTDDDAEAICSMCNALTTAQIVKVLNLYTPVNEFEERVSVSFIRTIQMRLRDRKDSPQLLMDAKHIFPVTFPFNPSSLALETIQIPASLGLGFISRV
UniProt Q9NXD2: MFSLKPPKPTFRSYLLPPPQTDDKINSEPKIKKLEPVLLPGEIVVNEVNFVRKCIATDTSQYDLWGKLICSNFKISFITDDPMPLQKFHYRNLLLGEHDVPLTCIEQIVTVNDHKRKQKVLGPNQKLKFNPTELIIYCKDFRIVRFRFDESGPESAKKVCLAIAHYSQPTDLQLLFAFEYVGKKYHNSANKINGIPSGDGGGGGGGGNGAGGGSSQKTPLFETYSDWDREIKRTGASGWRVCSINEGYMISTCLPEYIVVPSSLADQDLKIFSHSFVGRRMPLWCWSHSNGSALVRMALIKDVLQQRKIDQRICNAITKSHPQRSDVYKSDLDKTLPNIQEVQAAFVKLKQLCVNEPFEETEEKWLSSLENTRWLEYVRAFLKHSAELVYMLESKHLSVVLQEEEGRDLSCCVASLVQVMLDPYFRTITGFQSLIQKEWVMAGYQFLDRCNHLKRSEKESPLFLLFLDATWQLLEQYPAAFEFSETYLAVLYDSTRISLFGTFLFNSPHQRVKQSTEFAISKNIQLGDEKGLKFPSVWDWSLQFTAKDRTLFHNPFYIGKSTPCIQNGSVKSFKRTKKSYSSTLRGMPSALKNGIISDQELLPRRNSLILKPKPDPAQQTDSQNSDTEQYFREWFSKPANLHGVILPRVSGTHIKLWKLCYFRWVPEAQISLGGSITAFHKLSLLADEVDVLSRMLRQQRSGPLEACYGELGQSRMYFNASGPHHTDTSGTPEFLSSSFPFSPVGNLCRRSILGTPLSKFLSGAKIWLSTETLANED
UniProt Q9HD67, whole entry, looked up: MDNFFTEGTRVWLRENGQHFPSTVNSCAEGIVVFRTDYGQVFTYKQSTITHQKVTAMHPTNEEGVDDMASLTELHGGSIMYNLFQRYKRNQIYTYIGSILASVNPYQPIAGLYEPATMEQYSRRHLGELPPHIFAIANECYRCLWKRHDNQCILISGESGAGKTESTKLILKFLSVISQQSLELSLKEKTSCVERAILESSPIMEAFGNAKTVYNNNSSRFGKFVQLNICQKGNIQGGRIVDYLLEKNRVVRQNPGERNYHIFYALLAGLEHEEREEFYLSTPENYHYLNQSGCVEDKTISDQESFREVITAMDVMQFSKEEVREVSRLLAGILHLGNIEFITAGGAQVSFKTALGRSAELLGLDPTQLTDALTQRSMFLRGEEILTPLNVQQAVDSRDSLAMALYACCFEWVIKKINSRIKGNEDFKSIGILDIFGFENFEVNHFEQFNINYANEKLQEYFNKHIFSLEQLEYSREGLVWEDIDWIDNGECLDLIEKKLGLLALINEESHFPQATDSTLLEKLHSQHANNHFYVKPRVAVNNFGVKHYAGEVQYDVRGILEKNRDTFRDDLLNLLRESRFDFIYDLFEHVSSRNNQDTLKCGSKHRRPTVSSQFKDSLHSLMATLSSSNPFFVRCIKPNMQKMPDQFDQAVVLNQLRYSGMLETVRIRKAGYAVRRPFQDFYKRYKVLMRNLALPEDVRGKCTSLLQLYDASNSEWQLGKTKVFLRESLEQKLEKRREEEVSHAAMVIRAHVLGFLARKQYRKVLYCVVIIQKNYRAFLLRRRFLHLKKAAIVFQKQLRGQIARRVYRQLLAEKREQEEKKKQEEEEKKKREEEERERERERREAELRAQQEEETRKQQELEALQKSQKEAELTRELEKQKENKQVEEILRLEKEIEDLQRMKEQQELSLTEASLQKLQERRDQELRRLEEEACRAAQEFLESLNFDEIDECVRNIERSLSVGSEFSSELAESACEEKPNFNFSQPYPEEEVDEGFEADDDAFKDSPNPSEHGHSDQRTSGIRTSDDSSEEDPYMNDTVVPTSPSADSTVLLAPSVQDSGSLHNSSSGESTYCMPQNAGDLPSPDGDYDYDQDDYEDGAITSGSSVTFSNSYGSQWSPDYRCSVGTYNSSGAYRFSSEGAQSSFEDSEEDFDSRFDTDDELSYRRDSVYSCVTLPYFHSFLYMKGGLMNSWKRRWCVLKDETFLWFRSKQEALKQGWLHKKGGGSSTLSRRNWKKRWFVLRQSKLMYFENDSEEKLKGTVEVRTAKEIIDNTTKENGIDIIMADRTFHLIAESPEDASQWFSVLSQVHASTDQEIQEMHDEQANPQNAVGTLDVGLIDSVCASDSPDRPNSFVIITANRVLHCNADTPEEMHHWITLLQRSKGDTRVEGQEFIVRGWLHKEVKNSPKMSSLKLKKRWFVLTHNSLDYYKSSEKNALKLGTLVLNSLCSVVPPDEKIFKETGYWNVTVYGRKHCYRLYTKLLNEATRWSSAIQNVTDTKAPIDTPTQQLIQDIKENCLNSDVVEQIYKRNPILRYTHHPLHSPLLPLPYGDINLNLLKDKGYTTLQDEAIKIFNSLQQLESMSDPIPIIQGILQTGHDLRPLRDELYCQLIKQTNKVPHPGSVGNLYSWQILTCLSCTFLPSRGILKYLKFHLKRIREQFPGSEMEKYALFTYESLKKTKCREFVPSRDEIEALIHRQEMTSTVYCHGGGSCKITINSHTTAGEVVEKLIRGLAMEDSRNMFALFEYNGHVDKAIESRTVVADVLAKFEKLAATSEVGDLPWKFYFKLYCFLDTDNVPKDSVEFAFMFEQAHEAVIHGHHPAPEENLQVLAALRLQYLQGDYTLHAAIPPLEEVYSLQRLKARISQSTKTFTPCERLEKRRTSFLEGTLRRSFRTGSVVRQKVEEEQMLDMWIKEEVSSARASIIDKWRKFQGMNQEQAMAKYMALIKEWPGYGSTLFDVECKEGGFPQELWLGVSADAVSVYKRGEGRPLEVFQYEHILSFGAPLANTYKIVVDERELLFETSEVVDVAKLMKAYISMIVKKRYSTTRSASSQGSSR
UniProt Q969V5: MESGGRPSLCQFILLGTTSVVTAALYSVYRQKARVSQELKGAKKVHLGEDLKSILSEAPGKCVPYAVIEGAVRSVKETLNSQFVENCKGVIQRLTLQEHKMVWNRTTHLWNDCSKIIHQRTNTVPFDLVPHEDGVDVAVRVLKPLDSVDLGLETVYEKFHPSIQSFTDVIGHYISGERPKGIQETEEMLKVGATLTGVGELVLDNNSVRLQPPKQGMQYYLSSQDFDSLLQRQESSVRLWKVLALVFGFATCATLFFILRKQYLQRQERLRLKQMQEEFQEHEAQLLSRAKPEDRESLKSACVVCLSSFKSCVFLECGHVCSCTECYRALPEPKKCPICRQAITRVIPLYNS

Experiments:
[1] = compound: ClCC(=O)N[C@H]1CCCc2ccccc12; test: log2 mean competition ratio of IA-DTB cysteine labelling (DMSO/compound) (log2 ratio); higher = stronger cysteine engagement by compound; settings: treatment time: 4 h, cell line lysate: HEK293T
Protocol: (§1)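 IA-DTB competitive cysteine chemoproteomics in HEK293T RIPA lysate. Lysates were treated with compound 29 or 30 at 50 or 200 µM for 4 h, then IA-DTB (500 µM, 1 h), trypsin-digested, NeutrAvidin-enriched and analysed by diaPASEF. Competition ratio = intensity DMSO / intensity compound (n=4 treated, n=64 DMSO); binding: mean log2 CR ≥ 1 and p ≤ 0.05 plus QC filters. Target is the cysteine site.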

[2] = compound: ClCC(=O)N[C@@H]1CCCc2ccccc12; test: as above; settings: treatment time: 4 h, cell line lysate: HEK293T
Protocol: as §1

Target | log2 mean competition ratio ([1]; 50 µM) | log2 mean competition ratio ([1]; 200 µM) | log2 mean competition ratio ([2]; 50 µM) | log2 mean competition ratio ([2]; 200 µM)
MTMR12 C694 (UniProt Q9C0I1) | -0.0012 | 0.117 | – | –
MTREX C430 (UniProt P42285) | -0.331 | -0.32 | -0.281 | -0.235
MTIF2 C290 (UniProt P46199) | -0.251 | 0.181 | – | –
MZT2B;MZT2A C80;(C80) | 0.132 | 0.289 | – | –
MYO5A C535 (UniProt Q9Y4I1) | 0.281 | -0.19 | – | –
MYO9A C735 (UniProt B2RTY4) | -0.195 | 0.386 | – | –
MTARC1 C273 | -0.263 | -0.0364 | – | –
MTMR10 C564 (UniProt Q9NXD2) | 0.128 | 0.185 | 0.211 | 0.44
MRPL53 C21 (UniProt Q96EL3) | 1.01 | 0.318 | 0.133 | -0.0267
MYO10 C1874 (UniProt Q9HD67) | -0.474 | 0.264 | – | –
MSH2 C843 (UniProt P43246) | 0.016 | -0.031 | -0.0594 | 0.0988
MTARC2 C272 | -0.275 | 0.0936 | -0.198 | 0.14
MYL6 C2 | 0.173 | 0.131 | – | –
MTUS1 C492 (UniProt Q9ULD2) | 0.0541 | 0.0411 | – | –
MTF1 C129 (UniProt Q14872) | -0.129 | -0.0719 | – | –
NACC1 C464 (UniProt Q96RE7) | 0.127 | 0.219 | – | –
MTERF1 C62 | 0.174 | 0.0195 | 0.606 | -0.0269
MYO1B C641 (UniProt O43795) | 0.324 | 0.359 | – | –
MUL1 C113 (UniProt Q969V5) | 0.091 | -0.0599 | 0.000956 | 0.052

Looked up one by one from above:
Target | log2 mean competition ratio ([1]; 50 µM) | log2 mean competition ratio ([1]; 200 µM) | log2 mean competition ratio ([2]; 50 µM) | log2 mean competition ratio ([2]; 200 µM)
MSH2 C843 (UniProt P43246) | 0.016 | -0.031 | -0.0594 | 0.0988
MYO5A C535 (UniProt Q9Y4I1) | 0.281 | -0.19 | – | –
